Measured values taken from patent US5886162A, “Lipophilic diakylaminomethylene prodrug derivatives for the inhibition of replication of viruses” (Research Foundation of State University of New York, priority 1991, dated 1999).
For at least one compound, name, drawing or mass did not settle the structure.

Experiment: Reverse phase HPLC retention time comparison (lipophilicity)
Type: physicochemical
Conditions: measure of lipophilicity
Excerpt: A series of compounds were produced in accord with the method of Example 1 with various substitutions of 2' deoxycytidine at the N^4 position of the dialkylaminomethylene side chain.
Because of economic considerations 2'-deoxycytidine, was used as the parent nucleoside for comparison purposes in this study.

CC(C)N(C=Nc1ccn([C@H]2C[C@H](O)[C@@H](CO)O2)c(=O)n1)C(C)C [Compound 7, N^4 -Diisopropylamino-methylene-2'-deoxycytidine]
RETENTION TIME: 15.79 min
